{"sequences": {"note": "Protein sequences, listed by entry. Tags and fused reporters are not part of them. Lines headed by an entry give the natural chain unless they say otherwise; changes in a name come on top.", "UniProt P06239": "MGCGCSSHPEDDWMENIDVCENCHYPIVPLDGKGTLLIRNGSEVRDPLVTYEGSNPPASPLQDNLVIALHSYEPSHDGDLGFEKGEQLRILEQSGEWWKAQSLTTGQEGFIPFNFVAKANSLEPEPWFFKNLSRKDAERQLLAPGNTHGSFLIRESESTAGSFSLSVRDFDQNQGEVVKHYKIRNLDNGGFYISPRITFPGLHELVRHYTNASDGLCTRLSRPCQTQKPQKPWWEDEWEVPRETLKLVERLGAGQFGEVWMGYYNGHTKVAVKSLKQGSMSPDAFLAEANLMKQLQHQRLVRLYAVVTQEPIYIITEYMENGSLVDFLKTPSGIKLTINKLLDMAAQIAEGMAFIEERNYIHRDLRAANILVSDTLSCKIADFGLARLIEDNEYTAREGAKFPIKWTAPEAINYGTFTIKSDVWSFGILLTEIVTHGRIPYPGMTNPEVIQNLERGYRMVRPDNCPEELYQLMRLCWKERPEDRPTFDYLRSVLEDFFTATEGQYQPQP", "UniProt P53667": "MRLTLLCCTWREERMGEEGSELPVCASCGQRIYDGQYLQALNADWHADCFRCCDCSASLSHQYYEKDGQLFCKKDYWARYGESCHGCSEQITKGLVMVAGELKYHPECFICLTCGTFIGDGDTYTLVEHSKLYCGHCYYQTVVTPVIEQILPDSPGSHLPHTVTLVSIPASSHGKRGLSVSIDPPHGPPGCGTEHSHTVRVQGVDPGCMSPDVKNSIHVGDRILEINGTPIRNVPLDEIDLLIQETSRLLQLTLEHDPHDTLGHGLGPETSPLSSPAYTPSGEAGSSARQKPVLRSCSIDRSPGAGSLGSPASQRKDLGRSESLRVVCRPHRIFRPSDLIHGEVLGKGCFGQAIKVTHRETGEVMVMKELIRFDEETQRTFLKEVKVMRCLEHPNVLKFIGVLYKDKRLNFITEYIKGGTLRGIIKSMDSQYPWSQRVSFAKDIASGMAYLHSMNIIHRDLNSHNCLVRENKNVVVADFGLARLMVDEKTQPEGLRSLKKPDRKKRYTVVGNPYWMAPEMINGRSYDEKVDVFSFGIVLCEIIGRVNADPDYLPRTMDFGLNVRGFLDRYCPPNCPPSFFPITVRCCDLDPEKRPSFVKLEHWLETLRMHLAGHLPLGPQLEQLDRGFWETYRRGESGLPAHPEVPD"}, "source": "the supplement of paper PMC12823440", "about": "“Inhibitors supercharge kinase turnover through native proteolytic circuits” (Nature, 2025)", "note": "Where a name gives a salt, the structure may show the parent alone. This is one part of the list. The calls rarely recur for the same compound in another form.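 Kinases were expressed as nanoluciferase fusions in K562 cells and luminescence was read every 4 h between 2 and 18 h as percent of control, DMSO set to 100% and a positive control to 0%. A time point counts as decreased when the signal drops significantly (2 sigma). The hit call is the authors' own, does not follow from the count of time points alone, and its rule is not shown.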", "data": [{"target": "LCK (UniProt P06239)", "experiment": "number of time points (of 5) at which kinase-Nluc abundance scored as decreased, DMSO-normalised (count); higher = more persistent destabilization", "conditions": "K562; 2-18 h", "values": [{"smiles": "CS(=O)(=O)c1ccc(-c2cnc(N)c(C(=O)Nc3ccccc3)n2)cc1", "note": "(10 µM)", "number of time points": 0}, {"smiles": "O=C(NC(NC(=S)Nc1ccc(F)c([N+](=O)[O-])c1)C(Cl)(Cl)Cl)C(c1ccccc1)c1ccccc1", "note": "(centres undefined) (10 µM)", "number of time points": 0}, {"smiles": "COc1cc(C(N)=O)nc(-c2cccc(C#C[C@]3(O)CCN(C)C3=O)c2)c1", "note": "(10 µM)", "number of time points": 0}, {"smiles": "O=C(Nc1cc(Oc2cc(F)c(NC(=O)C3(C(=O)Nc4ccc(F)cc4)CC3)cc2F)ccn1)C1CC1", "note": "[Altiratinib] (10 µM)", "number of time points": 0}, {"smiles": "COc1ccc(Cl)cc1NC(=O)Nc1cc(C)nc2ccccc12", "note": "(2.5 µM)", "number of time points": 0}, {"smiles": "COc1ccc(CC(=O)Nc2nc3c(s2)CCc2ccccc2-3)cc1OC", "note": "(10 µM)", "number of time points": 0}, {"smiles": "N[C@H](Cc1c[nH]c2ccccc12)C(=O)N/N=C/c1ccc2nccnc2c1", "note": "[Rhosin (hydrochloride)] (10 µM)", "number of time points": 0}, {"smiles": "CC(C)(C)c1ccc(S(=O)(=O)Nc2ccc(-n3ccnc3)cc2)cc1", "note": "(10 µM)", "number of time points": 0}, {"smiles": "Cc1ccc(-c2c(C(=O)CF)n(CCCO)c3ncnc(N)c23)cc1", "note": "(10 µM)", "number of time points": 0}]}, {"target": "LIMK1 (UniProt P53667)", "experiment": "number of time points (of 5) at which kinase-Nluc abundance scored as decreased, DMSO-normalised (count); higher = more persistent destabilization", "conditions": "K562; 2-18 h", "values": [{"smiles": "C=C(CCC=C(C)C)[C@H]1CC[C@]2(C)[C@@H]1[C@H](O)C[C@@H]1[C@@]3(C)CC[C@H](O[C@@H]4O[C@H](CO)[C@@H](O)[C@H](O)[C@H]4O[C@@H]4O[C@H](CO)[C@@H](O)[C@H](O)[C@H]4O)C(C)(C)[C@@H]3CC[C@]12C", "note": "[Ginsenoside Rk1] (10 µM)", "number of time points": 0}, {"smiles": "CCn1c(=O)c(-c2ccc(-c3cncs3)cc2Cl)cc2cnc(Nc3ccc(N4CCN(C)CC4)cc3)nc21", "note": "(2.5 µM)", "number of time points": 0}, {"smiles": "Nc1nccc(Oc2ccc(NC(=O)c3cn(COP(=O)(O)O)cc(-c4ccc(F)cc4)c3=O)cc2F)c1Cl", "note": "(10 µM)", "number of time points": 2}, {"smiles": "Cc1cc(-c2cc(OC(=O)c3ccccc3)ccc2Cl)cc2nnc(Nc3ccc(OCCN4CCCC4)cc3)nc12", "note": "(0.5 µM)", "number of time points": 0}, {"smiles": "OC[C@H]1O[C@@H](Oc2cc3c(O)cc(O)cc3[o+]c2-c2cc(O)c(O)c(O)c2)[C@H](O)[C@@H](O)[C@@H]1O", "note": "[Delphinidin 3-glucoside (chloride)] (10 µM)", "number of time points": 0}, {"smiles": "O=C(/C=C/c1ccc(O)c(O)c1)c1ccc(O[C@@H]2O[C@H](CO)[C@@H](O)[C@H](O)[C@H]2O)c(O)c1O", "note": "[Marein] (10 µM)", "number of time points": 0}, {"smiles": "O=C1Nc2nc(-c3c(O)cccc3OCC3CC3)cc([C@@H]3CCCNC3)c2CO1", "note": "[Bay 65-1942 (hydrochloride)] (10 µM)", "number of time points": 2}, {"smiles": "CC(C)CN(CC(=O)N1CCN(CC(OCc2ccc3ccccc3c2)c2ccc(Cl)cc2Cl)CC1)CC(C)C", "note": "(centres undefined) [LYN-1604 (dihydrochloride)] (2.5 µM)", "number of time points": 0}, {"smiles": "CCc1cc(O)c(F)cc1-c1ccc2c(-c3nc4c([nH]3)CN(C3CCN(C)CC3)CC4)n[nH]c2c1", "note": "[JAK-IN-5 (hydrochloride)] (2 µM)", "number of time points": 0}, {"smiles": "Cc1ccc(Nc2cc(-c3cccc(N4C(=O)c5ccccc5C4=O)c3)ncn2)cc1NS(C)(=O)=O", "note": "(10 µM)", "number of time points": 0}, {"smiles": "C=C1C(=O)O[C@@H]2C[C@@]3(C)CCC[C@H](C)C3=C[C@H]12", "note": "[Alantolactone] (10 µM)", "number of time points": 0}, {"smiles": "C=C(C)C(=O)Nc1cccc(-c2ncnc3[nH]cc(C(=O)OCC)c23)c1", "note": "(10 µM)", "number of time points": 0}, {"smiles": "CNc1nc(Nc2cnn(C3CCN(C4COC4)CC3F)c2Cl)ncc1C(F)(F)F", "note": "(centres undefined) (10 µM)", "number of time points": 0}, {"smiles": "Cc1cc(Nc2cc(Cl)nc(Oc3ccc([N+](=O)[O-])cc3)n2)n[nH]1", "note": "[Autophinib] (2.5 µM)", "number of time points": 0}, {"smiles": "CC(C)=CC[C@H](O)C1=CC(=O)c2c(O)ccc(O)c2C1=O", "note": "[(-)-Alkannin] (2.5 µM)", "number of time points": 0}, {"smiles": "CNCc1ccccc1-c1csc([C@@H](C)Nc2nc(C)nc3cc(OC)c(OC)cc23)c1", "note": "(2.5 µM)", "number of time points": 2}, {"smiles": "COc1ncc(-c2nc(N3CCOCC3)nc3c(CN4CCC(C(C)(C)O)CC4)cc(F)cc23)cc1NS(C)(=O)=O", "note": "[Linperlisib] (10 µM)", "number of time points": 0}, {"smiles": "O=C(Nc1ccc(F)cc1F)[C@H](NC(=S)Nc1cc(C(F)(F)F)cc(C(F)(F)F)c1)c1ccccc1", "note": "(2.5 µM)", "number of time points": 0}, {"smiles": "O=C1NC(=O)C(=Cc2ccc(-c3ccc(F)cc3)o2)S1", "note": "(stereo in doubt) (10 µM)", "number of time points": 0}, {"smiles": "CCOc1cc(C(=O)N2CCC(N3CCN(C)CC3)CC2)ccc1Nc1ncc2c(n1)N(C1CCCC1)c1ccccc1C(=O)N2C", "note": "(10 µM)", "number of time points": 0}]}]}
